Paper PMC9569985
These are yes or no findings as the source states them, for the method shown. In cells and extracts the contact can be indirect. Here binding means that the protein was enriched with, or labelled near, the bait; the list need not be complete. Sequences can lack the tags named with a protein.

Amino acid sequences for entries named in this document (tags omitted).
UniProt P17980: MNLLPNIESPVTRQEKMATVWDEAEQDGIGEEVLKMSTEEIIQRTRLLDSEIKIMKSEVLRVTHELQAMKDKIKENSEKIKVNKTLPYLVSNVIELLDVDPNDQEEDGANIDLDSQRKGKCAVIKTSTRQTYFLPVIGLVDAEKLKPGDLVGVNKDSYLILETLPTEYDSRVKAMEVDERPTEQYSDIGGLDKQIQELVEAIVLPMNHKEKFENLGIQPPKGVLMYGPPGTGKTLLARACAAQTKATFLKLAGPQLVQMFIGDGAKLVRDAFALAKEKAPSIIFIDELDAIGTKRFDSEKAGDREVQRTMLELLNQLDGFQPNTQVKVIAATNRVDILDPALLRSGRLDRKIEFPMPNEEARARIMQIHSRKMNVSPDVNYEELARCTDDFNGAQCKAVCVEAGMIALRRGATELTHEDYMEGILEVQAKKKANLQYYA
UniProt Q8N6H7: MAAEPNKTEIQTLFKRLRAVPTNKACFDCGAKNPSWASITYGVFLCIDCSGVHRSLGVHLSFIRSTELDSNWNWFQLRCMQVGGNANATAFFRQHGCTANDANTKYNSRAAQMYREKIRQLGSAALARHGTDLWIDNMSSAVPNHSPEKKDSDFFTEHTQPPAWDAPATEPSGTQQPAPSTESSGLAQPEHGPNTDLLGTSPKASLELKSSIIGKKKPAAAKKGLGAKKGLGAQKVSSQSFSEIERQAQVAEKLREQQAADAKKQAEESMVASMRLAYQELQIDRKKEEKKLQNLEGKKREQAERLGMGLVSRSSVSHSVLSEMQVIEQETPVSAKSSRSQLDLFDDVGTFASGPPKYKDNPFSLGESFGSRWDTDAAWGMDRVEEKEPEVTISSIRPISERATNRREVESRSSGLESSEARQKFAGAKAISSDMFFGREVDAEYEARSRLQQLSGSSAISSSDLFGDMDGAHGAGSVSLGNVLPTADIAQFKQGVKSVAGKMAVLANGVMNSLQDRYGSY
UniProt Q8IZP0: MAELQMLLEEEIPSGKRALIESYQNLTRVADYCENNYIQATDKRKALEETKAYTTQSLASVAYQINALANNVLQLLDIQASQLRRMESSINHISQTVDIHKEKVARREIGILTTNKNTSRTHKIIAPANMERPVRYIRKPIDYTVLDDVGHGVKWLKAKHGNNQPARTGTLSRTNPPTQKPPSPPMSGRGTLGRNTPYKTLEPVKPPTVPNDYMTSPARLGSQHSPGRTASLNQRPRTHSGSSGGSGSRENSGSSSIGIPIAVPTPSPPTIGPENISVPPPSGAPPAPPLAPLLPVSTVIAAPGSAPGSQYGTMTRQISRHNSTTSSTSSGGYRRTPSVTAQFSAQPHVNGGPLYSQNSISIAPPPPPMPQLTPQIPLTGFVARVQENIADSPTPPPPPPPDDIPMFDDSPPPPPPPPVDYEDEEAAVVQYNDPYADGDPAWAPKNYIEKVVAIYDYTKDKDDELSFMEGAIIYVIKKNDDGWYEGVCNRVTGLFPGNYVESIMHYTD
UniProt Q13561: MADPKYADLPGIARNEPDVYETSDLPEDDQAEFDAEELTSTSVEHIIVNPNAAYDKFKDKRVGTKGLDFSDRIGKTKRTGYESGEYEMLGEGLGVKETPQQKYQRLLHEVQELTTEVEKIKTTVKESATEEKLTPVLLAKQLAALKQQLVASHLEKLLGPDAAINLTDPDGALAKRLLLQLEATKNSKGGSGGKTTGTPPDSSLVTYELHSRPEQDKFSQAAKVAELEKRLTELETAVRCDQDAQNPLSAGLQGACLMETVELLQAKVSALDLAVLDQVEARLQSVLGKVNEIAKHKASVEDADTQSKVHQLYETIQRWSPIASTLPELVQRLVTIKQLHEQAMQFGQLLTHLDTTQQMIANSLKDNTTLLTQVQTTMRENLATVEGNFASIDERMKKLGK
UniProt P60842: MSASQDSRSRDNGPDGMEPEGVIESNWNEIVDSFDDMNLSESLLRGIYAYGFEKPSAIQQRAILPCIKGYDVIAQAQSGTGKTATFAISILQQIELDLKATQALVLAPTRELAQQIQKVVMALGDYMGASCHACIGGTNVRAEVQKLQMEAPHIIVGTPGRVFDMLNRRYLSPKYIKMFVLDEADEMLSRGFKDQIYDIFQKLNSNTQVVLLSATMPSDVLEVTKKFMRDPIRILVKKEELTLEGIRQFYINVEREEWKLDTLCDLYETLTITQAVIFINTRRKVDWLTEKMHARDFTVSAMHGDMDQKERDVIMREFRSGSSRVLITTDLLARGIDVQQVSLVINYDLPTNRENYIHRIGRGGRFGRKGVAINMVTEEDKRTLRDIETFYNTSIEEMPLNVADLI
UniProt P11142: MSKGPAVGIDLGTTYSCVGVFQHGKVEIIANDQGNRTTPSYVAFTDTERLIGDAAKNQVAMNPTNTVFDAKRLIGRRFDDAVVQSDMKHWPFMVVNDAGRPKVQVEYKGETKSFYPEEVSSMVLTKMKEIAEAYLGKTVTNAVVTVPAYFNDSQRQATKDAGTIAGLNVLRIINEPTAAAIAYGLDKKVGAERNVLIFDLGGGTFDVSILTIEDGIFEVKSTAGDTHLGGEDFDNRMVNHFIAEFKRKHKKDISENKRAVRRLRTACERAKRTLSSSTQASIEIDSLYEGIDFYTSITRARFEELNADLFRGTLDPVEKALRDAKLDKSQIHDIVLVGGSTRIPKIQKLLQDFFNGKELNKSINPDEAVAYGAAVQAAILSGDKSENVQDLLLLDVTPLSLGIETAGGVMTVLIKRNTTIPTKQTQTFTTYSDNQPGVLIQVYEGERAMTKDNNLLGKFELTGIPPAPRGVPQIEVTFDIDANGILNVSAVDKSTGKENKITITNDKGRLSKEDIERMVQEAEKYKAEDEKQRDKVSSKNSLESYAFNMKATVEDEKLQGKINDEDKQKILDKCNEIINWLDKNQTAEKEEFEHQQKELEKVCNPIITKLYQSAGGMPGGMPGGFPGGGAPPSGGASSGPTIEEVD
UniProt Q9NR12: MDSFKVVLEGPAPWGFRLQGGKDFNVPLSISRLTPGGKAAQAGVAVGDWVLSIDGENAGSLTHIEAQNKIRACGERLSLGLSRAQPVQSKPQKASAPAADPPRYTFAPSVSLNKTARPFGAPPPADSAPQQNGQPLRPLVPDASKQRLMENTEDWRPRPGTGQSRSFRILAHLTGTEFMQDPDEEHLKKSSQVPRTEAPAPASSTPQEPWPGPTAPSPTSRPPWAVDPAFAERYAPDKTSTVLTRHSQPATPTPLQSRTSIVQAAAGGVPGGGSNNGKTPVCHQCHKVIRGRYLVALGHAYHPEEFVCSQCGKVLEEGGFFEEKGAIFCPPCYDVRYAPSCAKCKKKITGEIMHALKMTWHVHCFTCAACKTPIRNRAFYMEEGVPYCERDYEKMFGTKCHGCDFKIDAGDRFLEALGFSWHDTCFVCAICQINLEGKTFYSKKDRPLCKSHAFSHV
UniProt P54821: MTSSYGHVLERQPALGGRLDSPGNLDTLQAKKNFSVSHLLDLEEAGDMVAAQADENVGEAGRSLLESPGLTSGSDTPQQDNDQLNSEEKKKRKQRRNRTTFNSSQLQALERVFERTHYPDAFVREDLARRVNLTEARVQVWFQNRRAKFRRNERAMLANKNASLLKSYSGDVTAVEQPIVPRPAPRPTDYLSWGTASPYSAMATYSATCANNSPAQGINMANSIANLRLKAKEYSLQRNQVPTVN
UniProt P14618: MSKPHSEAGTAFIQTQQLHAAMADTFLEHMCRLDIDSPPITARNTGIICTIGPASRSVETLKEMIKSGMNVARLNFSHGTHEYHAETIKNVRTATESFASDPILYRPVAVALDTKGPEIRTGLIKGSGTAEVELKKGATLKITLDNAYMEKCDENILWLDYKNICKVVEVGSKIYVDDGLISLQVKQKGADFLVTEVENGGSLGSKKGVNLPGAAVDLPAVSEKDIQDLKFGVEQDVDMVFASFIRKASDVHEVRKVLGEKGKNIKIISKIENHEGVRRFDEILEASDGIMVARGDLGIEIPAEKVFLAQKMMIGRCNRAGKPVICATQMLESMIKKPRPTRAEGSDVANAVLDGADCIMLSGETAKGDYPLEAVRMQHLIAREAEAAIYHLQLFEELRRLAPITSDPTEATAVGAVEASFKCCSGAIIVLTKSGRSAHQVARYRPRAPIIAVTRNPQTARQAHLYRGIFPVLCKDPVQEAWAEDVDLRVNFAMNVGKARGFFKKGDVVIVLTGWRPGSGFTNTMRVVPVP

T1: HSPB5-BioID2 (UniProt P23927)
T1 sequence: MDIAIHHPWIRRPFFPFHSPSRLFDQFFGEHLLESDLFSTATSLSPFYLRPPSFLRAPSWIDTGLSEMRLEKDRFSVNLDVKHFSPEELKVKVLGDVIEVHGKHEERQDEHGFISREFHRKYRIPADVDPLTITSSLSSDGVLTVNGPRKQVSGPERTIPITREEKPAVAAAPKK

B1: Translocon-associated protein subunit beta (protein, UniProt P43308 18-183)
chain: EEGARLLASKSLLNRYAVEGRDLTLQYNIYNVGSSAALDVELSDDSFPPEDFGIVSGMLNVKWDRIAPASNVSHTVVLRPLKAGYFNFTSATITYLAQEDGPVVIGSTSAPGQGGILAQREFDRRFSPHFLDWAAFGVMTLPSIGIPLLLWYSSKRKYDTPKTKKN
B2: 6-phosphogluconate dehydrogenase, (enzyme, UniProt P52209 1-483)
chain: MAQADIALIGLAVMGQNLILNMNDHGFVVCAFNRTVSKVDDFLANEAKGTKVVGAQSLKEMVSKLKKPRRIILLVKAGQAVDDFIEKLVPLLDTGDIIIDGGNSEYRDTTRRCRDLKAKGILFVGSGVSGGEEGARYGPSLMPGGNKEAWPHIKTIFQGIAAKVGTGEPCCDWVGDEGAGHFVKMVHNGIEYGDMQLICEAYHLMKDVLGMAQDEMAQAFEDWNKTELDSFLIEITANILKFQDTDGKHLLPKIRDSAGQKGTGKWTAISALEYGVPVTLIGEAVFARCLSSLKDERIQASKKLKGPQKFQFDGDKKSFLEDIRKALYASKIISYAQGFMLLRQAATEFGWTLNYGGIALMWRGGCIIRSVFLGKIKDAFDRNPELQNLLLDDFFKSAVENCQDSWRRAVSTGVQAGIPMPCFTTALSFYDGYRHEMLPASLIQAQRDYFGAHTYELLAKPGQFIHTNWTGHGGTVSSSSYNA

molecular target: T1, HSPB5-BioID2; assay: proximity labelling; HSPB5-BioID2 transiently overexpressed in 293T cells, biotin, with or without 5 µM MG132 for 24 h; proteins digested with trypsin (DiDBiT), biotinylated peptides purified on tamavidin 2-REV magnetic beads, nanoLC/MS/MS

Row | binding | Molecule
1 | binds | 26S proteasome regulatory subunit 6A (from UniProt P17980 1-439)
2 | binds | ADP-ribosylation factor GTPase-activating protein 2 (from UniProt Q8N6H7 1-521)
3 | binds | Abl interactor 1 (from UniProt Q8IZP0 1-508)
4 | binds | Dynactin subunit 2 (from UniProt Q13561 1-401)
5 | binds | Eukaryotic initiation factor 4A-I (from UniProt P60842 1-406)
6 | binds | Heat shock cognate 71 kDa protein (from UniProt P11142 1-646)
7 | binds | PDZ and LIM domain protein 7 (from UniProt Q9NR12 1-457)
8 | binds | Paired mesoderm homeobox protein 1 (from UniProt P54821 1-245)
9 | binds | Pyruvate kinase PKM (from UniProt P14618 1-531) (enzyme)
10 | binds | Sequestosome-1 (from UniProt Q13501 1-440)
11 | binds | Serine/threonine-protein kinase PLK2 (from UniProt Q9NYY3-1 1-685) (enzyme)
12 | binds | B1
13 | binds | B2
